Some of these results come from one statement about several compounds together. For at least one compound, name, drawing or mass did not settle the structure.
Biological target: T1, FLAG-tagged full length PHD2 (Homo sapiens, UniProt Q9GZT9)
T1 construct: FLAG-tagged full length PHD2; FLAG; made in house; host or cells: baculovirus-infected Sf9 cells
Experiment: PHD2 inhibition assay, time resolved fluorescence (HIF-1α peptide hydroxylation / VHL complex detection)
Format: biochemical
Conditions: 0.2 μM 2-oxoglutarate and 0.5 μM HIF-1α peptide; 30 min preincubation, 2 hr at room temperature

The chains behind the UniProt entries cited, without tags or fusion partners. Where a name states a change or a piece, a line headed by the entry shows the natural chain unless it says otherwise.
UniProt Q9GZT9: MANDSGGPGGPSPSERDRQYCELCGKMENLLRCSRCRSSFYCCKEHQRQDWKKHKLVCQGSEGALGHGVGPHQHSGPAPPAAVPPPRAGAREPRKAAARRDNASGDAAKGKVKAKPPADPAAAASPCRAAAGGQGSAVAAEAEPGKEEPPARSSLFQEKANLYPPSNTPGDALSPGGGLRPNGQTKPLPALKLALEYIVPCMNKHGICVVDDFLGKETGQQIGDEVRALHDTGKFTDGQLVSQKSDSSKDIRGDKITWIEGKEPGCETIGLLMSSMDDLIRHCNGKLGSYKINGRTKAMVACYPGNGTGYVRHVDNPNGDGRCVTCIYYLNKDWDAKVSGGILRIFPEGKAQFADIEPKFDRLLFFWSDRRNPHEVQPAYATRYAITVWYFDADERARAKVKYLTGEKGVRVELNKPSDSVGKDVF

Compound	IC50
1-(1H-indol-5-yl)1′-[(1-methyl-1H-imidazol-2-yl)methyl]spiro[indole-3,4′-piperidin]-2(1H)-one [Example 24]	≤ 1 µM
1-[4-(3-methylpyridin-4-yl)cyclohexyl]-1′-[(3-methylpyridin-2-yl)methyl]spiro[indole-3,4′-piperidin]-2(1H)-one [Example 69]	≤ 1 µM
1′-[(1-methyl-1H-imidazol-2-yl)methyl]-1-(2-oxo-2,3-dihydro-1,3-benzoxazol-6-yl)spiro[indole-3,4′-piperidin]-2(1H)-one [Example 23]	≤ 1 µM
1′-[(3-methylpyridin-2-yl)methyl]-1-(2-phenyl-1,3-thiazol-4-yl)spiro[indole-3,4′-piperidin]-2(1H)-one [Example 66]	≤ 1 µM
COC(=O)Cn1ccnc1CN1CCC2(CC1)C(=O)N(c1cnc3ccccc3c1)c1ccccc12 [Example 6, methyl{2-[(2-oxo-1-quinolin-3-yl-,1,2-dihyddro-1′H-spiro[indole-3,4′-piperidin]-1′-yl)methyl]-1H-imidazol-1-yl}acetate]	≤ 1 µM
Cn1ccnc1CN1CCC2(CC1)C(=O)N(c1ccc3nc(C(F)(F)F)ncc3c1)c1ccccc12 [Example 22]	≤ 1 µM
Cc1cccnc1CN1CCC2(CC1)C(=O)N(c1cnc3[nH]ncc3c1)c1ccccc12 [Example 25]	≤ 1 µM
Cc1cccnc1CN1CCC2(CC1)C(=O)N(c1cccc(-c3ccccc3)c1)c1ccccc12 [Example 29, 1-biphenyl-3-yl-1′-[(3-mehtylpyridin-2-yl)methyl]spiro[indole-3,4′-piperidin]-2(1H)-one]	≤ 1 µM
Cn1ccnc1CN1CCC2(CC1)C(=O)N(c1ccc3cnccc3c1)c1ccccc12 [Example 34]	≤ 1 µM
Cn1ccnc1CN1CCC2(CC1)C(=O)N(c1cccc3ccccc13)c1ccccc12 [Example 43, 1′[(1-methyl-1H-imidadzol-2-yl)methyl]-1-(1-maphthyl)spiro[indole-3,4′-piperidin]-2(1H)-one]	≤ 1 µM
